# Assay results taken from PubChem BioAssay AID2685 (National Center for Advancing Translational Sciences (NCATS), 2010).
# Some of the results follow. Further columns of the screen follow, without active or inactive calls. Most of these compounds were active or inconclusive in the main read-out, so they are no random draw. Potencies come from curve fits of mixed quality, noted in brackets.
# Experiment: qHTS Assay for Lipid Storage Modulators in Drosophila S3 Cells;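 as to cell number change: cells counted by Cell Tracker Red CMTPX staining in the red channel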
# Conditions: BODIPY lipid droplet fluorescence, 18-24 h; for cell number change: measured here: cell count max response, cells fed with added oleic acid
# Method in brief: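 Drosophila S3 cells loaded with oleic acid (400 uM, as added) and compounds at several concentrations; lipid droplets imaged by 488-nm laser-scanning cytometry, 500–530 nm intensity and object ratio to cell channel. Percent activity normalized to 20 uM Triacsin C.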
# [1] = measured here: cell number channel AC50, cells fed with added oleic acid
# [2] = measured here: lipid fluorescence (Fed channel) AC50, cells fed with added oleic acid
smiles,measurement,setting,value
Cc1cc2ncc(-c3ccc(Cl)cc3)cn2n1,cell number change,,5.48%
CC(=O)Oc1cc2oc(=O)cc(C)c2cc1Cl,cell number change,,-4.59%
same,AC50,[1],"0.0164 µM [falling, full curve, poor fit]"
same,AC50,[2],"0.058 µM [falling, full curve, poor fit]"
COC(=O)c1cccc(-n2[nH]nnc2=S)c1,cell number change,,-27.2%
CCN1C(=O)c2cccc3c(NC(=O)c4ccc(S(=O)(=O)N(C)C)cc4)ccc1c23,AC50,[2],"1.3 µM [rising, partial curve]"
Cc1nnc(SCC(=O)Nc2ccc([N+](=O)[O-])cc2)n1C,cell number change,,1.35%
COc1ccc(Cl)c2sc(N(Cc3cccnc3)C(C)=O)nc12,cell number change,,-8.55%
same,AC50,[1],"7.31 µM [falling, single point]"
same,AC50,[2],"29.1 µM [rising, single point]"
Cc1ccc2[nH]c3c(N4CCN(Cc5ccccc5)CC4)ncnc3c2c1,cell number change,,-40.1%
same,AC50,[1],"14.6 µM [falling, partial curve, poor fit]"
same,AC50,[2],"29.1 µM [falling, single point]"
Cc1ccc(NS(=O)(=O)c2ccc3c(c2)c(=O)n(C)c(=O)n3C)cc1F,cell number change,,-21.6%
same,AC50,[2],"5.17 µM [falling, full curve, poor fit]"
O=C1CC(c2ccccc2)c2ccccc21 (centres undefined),cell number change,,-38.9%
same,AC50,[2],"29.1 µM [falling, single point]"
COc1cc2cc(C(C)(C)O)oc(=O)c2cc1OC,cell number change,,-3.1%
same,AC50,[2],"16.4 µM [rising, single point]"
Cc1ccc(NC(=O)CO/N=C/c2ccccc2C)c(C)c1,AC50,[1],"6.51 µM [rising, single point]"
same,AC50,[2],"5.8 µM [rising, full curve]"
CCOC(=O)c1c(C)[nH]c(C)c1C(=O)COC(=O)/C=C/c1ccc(OC)cc1,cell number change,,25%
same,AC50,[1],"0.517 µM [rising, full curve, poor fit]"
Cc1cccn2c(=O)nc(SCC(=O)N3CCOCC3)nc12,cell number change,,13.1%
same,AC50,[2],"3.26 µM [rising, full curve, poor fit]"
CC(C)(C)C(=O)Nc1ccc(C(=O)Nc2cccnc2)cc1,cell number change,,-5.68%
CCC(C(=O)Nc1cccnc1)c1ccccc1 (centres undefined),cell number change,,-26%
CCN(CC)S(=O)(=O)N1CCN(S(=O)(=O)N2CCOCC2)CC1,cell number change,,-2.95%
same,AC50,[2],"0.366 µM [falling, full curve]"
CC/C(=N/O)C(=O)c1ccc(Br)cc1,cell number change,,10.4%
O=C(O)CCSSCCC(=O)O,cell number change,,-23.5%
same,AC50,[1],"0.146 µM [falling, full curve, poor fit]"
O=[N+]([O-])c1ccc(-c2ccc(/C=N/Nc3nc(N4CCCCC4)nc(N4CCCCC4)n3)o2)cc1,AC50,[2],"2.91 µM [falling, partial curve]"
CCCCn1c(=O)c(CCC(=O)OCC(=O)Nc2cccc3ccccc23)nc2ccccc21,cell number change,,53.6%
same,AC50,[1],"7.31 µM [rising, partial curve]"
same,AC50,[2],"5.17 µM [rising, partial curve]"
Cn1c(=NC(=O)CS(=O)(=O)c2ccccc2)sc2cc([N+](=O)[O-])ccc21,AC50,[1],"2.06 µM [rising, single point]"
O=C(CNC(=O)c1ccc(Br)o1)NCc1cccc(Cl)c1,cell number change,,-4.32%
same,AC50,[2],"0.58 µM [rising, single point]"
CCN(CC)S(=O)(=O)c1ccc(N2CCOCC2)c(NC(=O)c2cc(C)cc(C)c2)c1,cell number change,,13%
same,AC50,[2],"1.64 µM [rising, single point]"
CCOc1ccccc1NC(=O)c1cc(SC)ccc1Cl,AC50,[1],"6.51 µM [rising, single point]"
same,AC50,[2],"3.26 µM [rising, partial curve]"
CCOC(=O)c1c(NC(=O)C2=C(C)NC(=S)NC2c2ccc(F)cc2)sc(C)c1C (centres undefined),cell number change,,9.65%
same,AC50,[2],"1.64 µM [rising, full curve, poor fit]"
CC(C)Nc1nc(-c2ccncc2)nc(-c2ccccc2)c1C#N,cell number change,,17.1%
same,AC50,[1],"2.91 µM [rising, partial curve]"
Cc1cccc(OCC(=O)NNC(=O)c2cc3ccccc3oc2=O)c1,cell number change,,40.5%
same,AC50,[1],"5.8 µM [rising, partial curve, poor fit]"
CN(C)CCCN1C(=O)C(=O)/C(=C(/O)c2ccc(OCc3ccccc3)cc2)C1c1cccnc1 (centres undefined),cell number change,,-1.14%
Cc1ccc2c(c1)nnn2C1CCN(CC(=O)Nc2ccc3c(c2)OCCO3)CC1,cell number change,,8.64%
same,AC50,[1],"1.03 µM [rising, single point]"
CN(CC(=O)Nc1ccccc1Br)C(=O)c1cccnc1Nc1cccc(C(F)(F)F)c1,AC50,[2],"20.6 µM [falling, single point]"
COc1ccc(Nc2nc(N3CCN(S(C)(=O)=O)CC3)nc3ccccc23)c(OC)c1,cell number change,,21.4%
same,AC50,[1],"7.31 µM [rising, partial curve]"
same,AC50,[2],"6.51 µM [rising, single point]"
O=C(NCc1ccccc1)Nc1cccn(Cc2ccccc2)c1=O,cell number change,,12.2%
same,AC50,[2],"16.4 µM [rising, partial curve, poor fit]"
O=C(CC1C(=O)NCCN1Cc1ccc(-c2ccccc2)cc1)NCC1CC1 (centres undefined),cell number change,,-1.55%
same,AC50,[2],"0.146 µM [falling, full curve, poor fit]"
CCC(C)(C)C1CCC(NC(=O)N2CCN(c3ccccc3O)CC2)CC1 (centres undefined),cell number change,,-15.8%
COc1ccc(NC(=O)CSc2nnc(Cc3ccc(C)cc3)c(=O)n2N)cc1,AC50,[2],"1.3 µM [rising, full curve, poor fit]"
O=C(NCc1nc(-c2ccc(C(F)(F)F)cc2)no1)c1cccs1,cell number change,,55.7%
same,AC50,[1],"29.1 µM [rising, single point]"
same,AC50,[2],"29.1 µM [rising, single point]"
O=C(CSc1nccn1Cc1ccccc1)Nc1ccccc1,cell number change,,55.1%
same,AC50,[1],"29.1 µM [rising, single point]"
C=CCn1c(=O)c2ccccc2n2c(SCc3csc(-c4ccccc4)n3)nnc12,cell number change,,-7.01%
same,AC50,[2],"0.326 µM [rising, full curve, poor fit]"
CCCOc1ccccc1N/C(N)=N/c1nc(C)cc(C)n1,cell number change,,-19.6%
same,AC50,[2],"18.4 µM [falling, partial curve]"
CCOc1ccc(CNS(=O)(=O)c2ccc(-c3coc(C)n3)cc2)cc1,cell number change,,17.9%
same,AC50,[2],"25.9 µM [rising, single point]"
O=C(COc1ccc(S(=O)(=O)NC2CCCCC2)cc1Cl)NCc1cccnc1,cell number change,,-1.82%
same,AC50,[2],"7.31 µM [falling, partial curve, poor fit]"
c1ccc(OCC2CCNCC2)nc1,cell number change,,1.1%
N#C/C(=C(/O)COC(=O)c1ccc(C#N)cc1)c1nc2ccccc2s1,cell number change,,43.2%
same,AC50,[1],"13 µM [rising, single point]"
same,AC50,[2],"4.61 µM [falling, partial curve, poor fit]"
O=C(CCCC(=O)N(CC(=O)NC1CCCCC1)c1ccc(F)cc1)Nc1ccccn1,cell number change,,-2.25%
CN1C(=O)[C@H]2[C@@H](/C=C/c3ccccc3)N3C(=O)CN(CC4CC4)C(=O)[C@@]3(C)[C@H]2C1=O,cell number change,,-1.8%
Fc1ccc(/C=N/NC2=Nc3cccc4cccc2c34)cc1,cell number change,,-32%
same,AC50,[1],"32.6 µM [falling, single point]"
same,AC50,[2],"1.64 µM [falling, partial curve]"
O=C(Cc1sc(-c2ccccc2Cl)nc1-c1ccccc1)Nc1ccccc1,cell number change,,2.81%
same,AC50,[1],"0.291 µM [rising, full curve, poor fit]"
same,AC50,[2],"2.59 µM [rising, partial curve]"
CSCC(O)Cn1[nH]c(=O)c2cc(Cl)c(Cl)cc2c1=O (centres undefined),cell number change,,-43.7%
same,AC50,[1],"29.1 µM [falling, single point]"
same,AC50,[2],"29.1 µM [falling, single point]"
O=C(CSc1nc2ccccc2c(=O)n1-c1ccccc1)N1CCc2ccccc2C1,cell number change,,34%
same,AC50,[1],"16.4 µM [rising, single point]"
same,AC50,[2],"9.2 µM [rising, partial curve]"
COc1cc(C(=O)OCC(=O)N(CC(C)C)C2CCS(=O)(=O)C2)cc(OC)c1C (centres undefined),cell number change,,7.27%
same,AC50,[2],"13 µM [rising, partial curve]"
Cc1nc(SCC(=O)Nc2ccnc3ccccc23)n[nH]1,cell number change,,111%
same,AC50,[1],"8.2 µM [rising, partial curve]"
same,AC50,[2],"14.6 µM [rising, partial curve]"
O=C1CN(S(=O)(=O)c2ccccc2Cl)CCN1,cell number change,,-31.4%
same,AC50,[2],"6.51 µM [rising, partial curve, poor fit]"
Cc1cccnc1NC(=O)CCCc1c[nH]c2ccccc12,cell number change,,26.6%
same,AC50,[2],"16.4 µM [rising, single point]"
CC(NC(=O)/C(=C/c1ccc(OC(F)F)cc1)c1ccccc1)c1ccccc1 (centres undefined),cell number change,,-22.3%
same,AC50,[2],"16.4 µM [falling, single point]"
Cc1cc(OCC(O)CN2CCCC2)cc(C)c1Cl (centres undefined),cell number change,,12.4%
same,AC50,[2],"10.3 µM [rising, partial curve]"
Cc1ccc(CC(=O)Nc2cc(C)on2)cc1,AC50,[1],"0.291 µM [rising, partial curve, poor fit]"
CCN(CC)CCCN(C(=O)c1cccs1)c1nc(-c2ccc(OC)cc2)cs1,cell number change,,-9.28%
same,AC50,[2],"0.058 µM [rising, partial curve, poor fit]"
Cc1cc(C(=O)CSc2n[nH]c(-c3ccccc3F)n2)c(C)n1Cc1cccs1,AC50,[1],"1.46 µM [falling, full curve]"
Cc1ccc2nc(SCC(=O)c3ccc(Cl)s3)[nH]c2c1,cell number change,,-16.7%
same,AC50,[2],"10.3 µM [rising, single point]"
CC(C)(C)NS(=O)(=O)c1ccc(N2C(=O)c3ccccc3C2=O)cc1,cell number change,,56.9%
Cc1cccc(C)c1N1CCN(S(=O)(=O)c2ccccc2)CC1,cell number change,,15.5%

# Part of the list above in another layout.
smiles | measurement | setting | value
CCC(C(=O)Nc1cccnc1)c1ccccc1 (centres undefined) | cell number change |  | -26%
CC/C(=N/O)C(=O)c1ccc(Br)cc1 | cell number change |  | 10.4%
Cc1ccc2c(c1)nnn2C1CCN(CC(=O)Nc2ccc3c(c2)OCCO3)CC1 | cell number change |  | 8.64%
Cc1ccc(CC(=O)Nc2cc(C)on2)cc1 | AC50 | [1] | 0.291 µM [rising, partial curve, poor fit]

# 4 entries from above, with bars between the fields.
smiles | measurement | setting | value
COC(=O)c1cccc(-n2[nH]nnc2=S)c1 | cell number change |  | -27.2%
CCN1C(=O)c2cccc3c(NC(=O)c4ccc(S(=O)(=O)N(C)C)cc4)ccc1c23 | AC50 | [2] | 1.3 µM [rising, partial curve]
Cc1nnc(SCC(=O)Nc2ccc([N+](=O)[O-])cc2)n1C | cell number change |  | 1.35%
COc1ccc(Cl)c2sc(N(Cc3cccnc3)C(C)=O)nc12 | cell number change |  | -8.55%
